# Data: US11826324B2, “Pharmaceutical compositions for preventing or treating inflammatory disease, autoimmune disease, or combination thereof, and method for using same” (INDUSTRY-ACADEMIC COOPERATION FOUNDATION, YONSEI UNIVERSITY, priority 2017, dated 2023)
# For at least one compound, name, drawing or mass did not settle the structure.
# System: virus-specific CD8+ T cell (GP33+CD8 T cell)
# Parameters: species or system C57BL/6 mouse
# Conditions: mouse, in vivo
smiles,measurement,value
"CO[C@H]1C[C@@H]2CC[C@@H](C)[C@@](O)(O2)C(=O)C(=O)N2CCCC[C@H]2C(=O)O[C@H]([C@H](C)C[C@@H]2CC[C@@H](O)[C@H](OC)C2)CC(=O)[C@H](C)/C=C(\C)[C@@H](O)[C@@H](OC)C(=O)[C@H](C)C[C@H](C)/C=C/C=C/C=C/1C [rapamycin, reference compound]",differentiation of TCM cells and TEM cells in PBMCs,promoted
same,proliferation of TEFF cells in PBMCs,inhibited
